From PubChem BioAssay AID2549 (National Center for Advancing Translational Sciences (NCATS), 2010)
Several values for one entry are separate records, joined by “and”; a condition that tells them apart may be missing. Equal entries are not always repeated. Out of some 240,000 compounds screened, about 1,300 (0.54%) were called active. This list was built around the results that the source calls inconclusive (neither active nor inactive); the mix of calls is not that of the screen. Calls come from the whole dose curve; as a rule, active = well fitted inhibition curve with a large enough effect; inconclusive = small, poorly fitted or top-dose-only effect; inactive = flat fitted curve, though single readings scatter. A potency beside an inconclusive call is a rough fit, not a confirmed value.

Amino acid sequences for entries named in this document (tags omitted). A change or cut given only in a name is not applied to a line headed by its entry.
UniProt P46063: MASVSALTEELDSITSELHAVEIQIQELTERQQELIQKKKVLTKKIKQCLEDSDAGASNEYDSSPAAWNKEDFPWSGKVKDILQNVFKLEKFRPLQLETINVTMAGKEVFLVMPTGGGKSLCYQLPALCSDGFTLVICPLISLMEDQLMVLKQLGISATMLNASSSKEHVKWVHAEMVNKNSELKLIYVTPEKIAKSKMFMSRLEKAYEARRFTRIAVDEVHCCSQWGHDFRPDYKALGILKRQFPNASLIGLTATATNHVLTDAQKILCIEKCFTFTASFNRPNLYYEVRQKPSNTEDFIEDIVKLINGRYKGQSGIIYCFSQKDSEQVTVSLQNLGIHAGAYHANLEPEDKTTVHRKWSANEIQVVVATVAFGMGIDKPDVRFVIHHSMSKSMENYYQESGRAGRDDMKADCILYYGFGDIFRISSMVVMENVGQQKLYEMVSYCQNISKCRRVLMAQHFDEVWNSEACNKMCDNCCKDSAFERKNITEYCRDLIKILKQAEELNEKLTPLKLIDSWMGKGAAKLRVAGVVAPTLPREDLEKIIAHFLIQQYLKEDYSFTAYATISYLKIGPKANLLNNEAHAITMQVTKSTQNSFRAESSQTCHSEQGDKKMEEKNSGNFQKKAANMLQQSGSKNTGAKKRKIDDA

These compounds were tested against ATP-dependent DNA helicase Q1 (Homo sapiens) (UniProt P46063) (assay: qHTS Assay for Inhibitors of RecQ-Like Dna Helicase 1 (RECQ1)). Conditions: RECQ1 DNA unwinding, red fluorescence kinetic read; activity, negative = inhibition: at 57.3 µM (top of the series); series mostly up to 57.3 µM.
Method in brief: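 RECQ1T1 50 nM; forked duplex (20 bp + 30-nt ss tails) 200 nM, ATP 2 mM final; pH 8.0, 2 mM MgCl2, 2.5 ug/ml poly(dI-dC); 15 min compound preincubation; discontinuous kinetic read over 2 h at RT.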
Note: nearly all actives have a fitted effect of over 30% in size.
Potency is the fitted concentration of half-maximal effect.
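Throughout, for activity, negative = inhibition: plate controls were vehicle for no effect and no enzyme for full effect.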

Row | Compound | Potency | activity, negative = inhibition | outcome
1 | O=C(Cn1c(CC(=O)N2CCCC2)nc2ccccc21)NCc1ccccc1 | inconclusive: 0.112 µM [inhibitor, full curve, poor fit] |  | 
2 | O=C(NC(=S)NC1CCCc2ccccc21)c1ccco1 (centres undefined) | inconclusive: 39.8 µM [inhibitor, partial curve] |  | 
3 | COc1ccc(NC(=O)c2ccc3c(SCC(=O)O)c4c(nc3c2)CCCC4)c(OC)c1 | inconclusive: 35.5 µM [inhibitor, single point] |  | 
4 | Cc1ccccc1OCC(=O)OCC(=O)NCC1CCCO1 (centres undefined) |  | inactive: -14% | 
5 | CCN(CC)CCOc1ccc(Br)cc1 |  | inactive: 4.95% | 
6 | CCCCCCNS(=O)(=O)c1ccccc1Br | inconclusive: 0.158 µM [inhibitor, full curve, poor fit] |  | 
7 | Cc1ccc2c(c1)S/C(=C/c1ccc[n+](C)c1)N2CCO |  | inactive: 4.64% | 
8 | COC(=O)c1ccccc1NC(=O)c1ccc(COc2ccc(C)c(C)c2)o1 |  | inconclusive: -30.1% [inhibitor] | 
9 | O=c1[nH]c2cc3c(cc2cc1CN(Cc1ccccc1)Cc1nnnn1Cc1ccco1)OCCO3 | inconclusive: 31.6 µM [inhibitor, single point] |  | 
10 | O=C(/C=C\c1ccc(O)c(O)c1)O[C@@H]1C[C@](O)(C(=O)O)C[C@@H](O)[C@@H]1O |  | inactive: -3.87% [at 25.9 µM] | 
11 | O=[N+]([O-])c1cc(Br)cc(C=Nc2ccc3c(c2)OCO3)c1O | inconclusive: 39.8 µM [inhibitor, single point] |  | 
12 | O=c1c(CCc2ccccc2)nc2cnc(N3CCOCC3)nc2n1-c1ccccc1 |  | inactive: -6.72% | 
13 | O=C(CC1SCCNC1=O)Nc1ccc(F)c(Cl)c1 (centres undefined) | inconclusive: 39.8 µM [inhibitor, single point] |  | 
14 | O=C(NCc1ccccn1)c1coc(=O)c(Br)c1 |  | inactive: -1.05% | 
15 | CCOc1cc(/C=C2/NC(=O)NC2=O)cc(Br)c1OCc1ccc(C(=O)O)cc1 | inconclusive: 39.8 µM [inhibitor, single point] |  | 
16 | O=C(COC(=O)C1(c2ccc(F)cc2)CCCC1)NCc1ccco1 | inconclusive: 28.2 µM [inhibitor, partial curve] |  | 
17 | CC1(C)OC1COc1c2ccoc2cc2oc(=O)ccc12 (centres undefined) |  |  | inactive
18 | CCC(=O)Nc1ccc(C(=O)CSc2nc3ccc(C)cc3[nH]2)cc1 | inconclusive: 14.1 µM [inhibitor, partial curve] |  | 
19 | C=C(C)C(=O)Nc1ccc2c(c1)OCCOCCOCCO2 | inconclusive: 11.2 µM [inhibitor, partial curve] |  | 
20 | CCn1cc(C2=NC(CCSC)CO2)c2ccccc21 (centres undefined) | inconclusive: 0.282 µM [inhibitor, full curve] |  | 
21 | O=C(NP(=O)(N1CCCC1)N1CCCC1)C1=C(N2CCOCC2)/C(=C/c2cccc([N+](=O)[O-])c2)CC1 | inconclusive: 28.2 µM [inhibitor, single point] |  | 
22 | COc1ccc2c(c1)CCc1c(C(=O)N(C)c3ccccc3)noc1-2 | active: 4.47 µM |  | 
23 | C=Cc1ccccc1C=C |  | inactive: 14.8% | 

Row | Compound | Potency | activity, negative = inhibition | outcome
24 | COc1cccc([C@@H]2Oc3ccc(Br)cc3C(=O)[C@H]2OC(=O)N[C@H](C)C2CCCCC2)c1 |  |  | inactive
25 | S=C(Nc1ccccc1)Nc1nc2ccccc2n1CCOc1ccc(Cl)cc1 |  | inactive: -10.5% | 
26 | COc1cc(-c2ccc(N=Nc3ccc4c(S(=O)(=O)O)cc(S(=O)(=O)O)c(N)c4c3O)c(OC)c2)ccc1N=Nc1ccc2c(S(=O)(=O)O)cc(S(=O)(=O)O)c(N)c2c1O | active: 8.91 µM and active: 4.47 µM |  | 
27 | COc1ccc(C(=O)C2CCCN(C/C=C/c3ccccc3OC)C2)c(OC)c1 (centres undefined) | inconclusive: 0.398 µM [inhibitor, partial curve, poor fit] |  | 
28 | c1ccc2c(c1)nc1n2C2(N3CCOCC3)CCCC2C1N1CCOCC1 (centres undefined) | inconclusive: 39.8 µM [inhibitor, single point] |  | 
29 | NC(=O)Cn1c(=O)n(Cc2ccco2)c(=O)c2c3c(sc21)CCCCC3 | inconclusive: 31.6 µM [inhibitor, single point] |  | 
30 | O=C1c2cccc3c(O)ccc(c23)C(=O)N1Cc1ccccc1 | inconclusive: 17.8 µM [inhibitor, single point] |  | 
31 | Cc1ccc(N=Cc2cc(Cc3ccccc3Cl)cc([N+](=O)[O-])c2O)c(O)c1 | inconclusive: 39.8 µM [inhibitor, partial curve] |  | 
32 | CC/C(=C/c1sc2ccc(C)cc2[n+]1CCCS(=O)(=O)[O-])SC | inconclusive: 35.5 µM [inhibitor, single point] |  | 
33 | CN1CCN(CC(=O)Nc2ccccc2Oc2ccccc2)CC1 | inconclusive: 39.8 µM [inhibitor, single point] |  | 
34 | COc1cccc(/C=N/Nc2nc3ccccc3n3cnnc23)c1O | active: 5.01 µM |  | 
35 | COc1ccc(OC(=O)COc2ccc(C)cc2)cc1 |  | inactive: -3.31% | 
36 | CCCCC[n+]1ccn(C2=C([O-])c3ccccc3C(=O)/C2=N\S(=O)(=O)c2ccc(Cl)cc2)c1 |  | inactive: -1.06% | 
37 | O=C(CN1CCC(C(O)(c2ccccc2)c2ccccc2)CC1)Nc1ccccc1 | inconclusive: 8.91 µM [inhibitor, partial curve] |  | 
38 | Cc1ccc(S(=O)(=O)CC(=O)c2ccccc2)cc1 | inconclusive: 7.08 µM [inhibitor, single point] |  | 
39 | COc1cc(OC)c2c(c1C(CCN1CCOCC1)c1ccc(N(C)C)cc1)OC(=O)CC2c1ccc(N(C)C)cc1 (centres undefined) | inconclusive: 0.126 µM [inhibitor, full curve] |  | 
40 | Cc1ccccc1-n1c(=O)/c(=C\c2ccco2)s/c1=C(/C#N)C(=O)Nc1ccccc1 | inconclusive: 28.2 µM [inhibitor, single point] |  | 
41 | Cc1cc(N)c2ccccc2[n+]1CCCCCCCCCCCCCC[n+]1c(C)cc(N)c2ccccc21 | active: 31.6 µM |  | 
42 | Cn1nc([N+](=O)[O-])nc1Sc1nnnn1-c1ccc(C(=O)O)cc1 | inconclusive: 3.98 µM [inhibitor, partial curve, poor fit] |  | 
43 | CC1(OC(=O)CCc2ccccc2)C(=O)C=C2C=C(c3ccc(C#N)cc3)OC=C2C1=O (centres undefined) |  | inactive: -18% | 
44 | CS(=O)(=O)N1CCN(C2CCN(Cc3ccccc3)CC2)CC1 | inconclusive: 0.141 µM [inhibitor, full curve, poor fit] |  | 
45 | C/C(=N\NC(N)=S)C1C2C3CC4C5CC(C42)C1C53 (centres undefined) |  | inactive: -0.727% | 
46 | Cc1sc2nc(CN3CCCC3)nc(N3CCN(C(=O)c4ccco4)CC3)c2c1C | inconclusive: 35.5 µM [inhibitor, single point] |  | 

Row | Compound | Potency | activity, negative = inhibition | outcome
47 | CC(=O)C1C(c2cccc([N+](=O)[O-])c2)C2C(C)=NN=C2CC1(C)O (centres undefined) | inconclusive: 39.8 µM [inhibitor, single point] |  | 
48 | COC(=O)c1cc(=O)n(Cc2cccs2)c(=Nc2ccc(F)cc2)s1 | inconclusive: 0.178 µM [inhibitor, full curve] |  | 
49 | CCc1cc(=O)oc2cc(C)c(CN3CCCCC3)c(O)c12 | active: 10 µM |  | 
50 | Cc1ccc(/C=C/C2=Cc3c(sc(NC(=O)CSc4n[nH]c(N)n4)c3C#N)C(C)(C)C2)o1 | active: 20 µM |  | 
51 | COC(=O)C1=C(C(=O)OC)[C@@H]2N(Cc3ccccc3)c3ccccc3[C@@]23C[C@@H](C(=O)OC)N=C3N1 | inconclusive: 7.08 µM [inhibitor, single point] and inconclusive: 6.31 µM [inhibitor, single point] |  | 
52 | COc1ccc(/C=C/C(=O)O)cc1COc1ccccc1C | inconclusive: 0.631 µM [inhibitor, single point] |  | 
53 | Cc1cc(C)cc(N2C(=O)CC(Sc3nnnn3-c3ccccc3)C2=O)c1 (centres undefined) |  | inactive: -16.4% | 
54 | Nc1nc(Nc2cccc(Cl)c2)nc(NCCO)c1[N+](=O)[O-] | inconclusive: 35.5 µM [inhibitor, single point] |  | 
55 | CC1=C(C#N)C(=O)OC(C)(C)C1 |  | inconclusive: -37.5% [inhibitor] | 
56 | CCn1c(SCC(=O)Nc2cc(C)on2)nc2c1c(=O)n(C)c(=O)n2C |  |  | inactive
57 | CC(=O)OCC(=O)[C@@]1(O)CCC2C3CC(C)C4=CC(=O)C=CC4(C)C3C(O)CC21C (some centres undefined) |  | inactive: 5.18% | 
58 | CCOc1ccc(C(=O)c2ccc(OC)c(O)c2O)cc1 |  |  | inactive
59 | O=C(ONc1ccc(N=NC(=O)c2ccccc2O)cc1)c1ccccc1 | inconclusive: 39.8 µM [inhibitor, single point] |  | 
60 | CC(=O)N(CC(=O)O)c1ccccc1 | inconclusive: 8.91 µM [inhibitor, single point] |  | 
61 | CN(C)c1ccc(/C=C/C(=O)c2c(O)c3ccccc3oc2=O)cc1 | inconclusive: 28.2 µM [inhibitor, single point] |  | 
62 | CCOc1ccc(C(=O)Nc2ccc(-c3cc4ccccc4oc3=O)c(C)c2)cc1[N+](=O)[O-] | inconclusive: 3.55 µM [inhibitor, single point] |  | 
63 | COCCCN1C(=O)CS/C1=N\S(=O)(=O)c1ccccc1 | inconclusive: 0.178 µM [inhibitor, full curve] |  | 
64 | O=C(N/N=C/c1cc([N+](=O)[O-])ccc1O)Nc1ccccc1 |  |  | inactive
65 | Cc1ccc(NC(=O)CC2S/C(=N/N=C3\CCCc4ccccc43)NC2=O)cc1 (centres undefined) | active: 25.1 µM |  | 
66 | Cc1ccc(NC(=O)c2cc(-n3cnnc3)ccc2Cl)cc1 |  | inactive: -0.575% | 
67 | Cc1ccc(NC(=O)CN2C(=O)N/C(=C/c3cc(C)n(-c4cccc(C(=O)O)c4)c3C)C2=O)cc1 | inconclusive: 31.6 µM [inhibitor, single point] |  | 
68 | O=C(O)c1cccc(-n2cccc2/C=C2/NC(=O)N(c3cccc(Cl)c3)C2=O)c1 | active: 31.6 µM |  | 
69 | CCN(Cc1ccccc1)C(=O)C1CCN(Cc2ccc(OC)c(OC)c2OC)CC1 | inconclusive: 12.6 µM [inhibitor, partial curve] |  | 

Four entries out of the list, arranged by molecular weight, descending:
Row | Compound | Potency | activity, negative = inhibition | outcome
50 | Cc1ccc(/C=C/C2=Cc3c(sc(NC(=O)CSc4n[nH]c(N)n4)c3C#N)C(C)(C)C2)o1 | active: 20 µM |  | 
65 | Cc1ccc(NC(=O)CC2S/C(=N/N=C3\CCCc4ccccc43)NC2=O)cc1 (centres undefined) | active: 25.1 µM |  | 
63 | COCCCN1C(=O)CS/C1=N\S(=O)(=O)c1ccccc1 | inconclusive: 0.178 µM [inhibitor, full curve] |  | 
49 | CCc1cc(=O)oc2cc(C)c(CN3CCCCC3)c(O)c12 | active: 10 µM |  | 
